Measured values from PMC11948025.
Where a chain is given by its changes, count along the chain named. Names may count otherwise. These are yes or no findings as the source states them, for the method shown. Binding seen in cells or lysates may run through a third protein. Some binding calls cover weakened binding; strength is not graded here. For part of these data: Sequences can lack the tags named with a protein.

B1: TRIM56-Myc (enzyme, UniProt Q9BRZ2 1-755)
chain: MVSHGSSPSLLEALSSDFLACKICLEQLRAPKTLPCLHTYCQDCLAQLADGGRVRCPECRETVPVPPEGVASFKTNFFVNGLLDLVKARACGDLRAGKPACALCPLVGGTSTGGPATARCLDCADDLCQACADGHRCTRQTHTHRVVDLVGYRAGWYDEEARERQAAQCPQHPGEALRFLCQPCSQLLCRECRLDPHLDHPCLPLAEAVRARRPGLEGLLAGVDNNLVELEAARRVEKEALARLREQAARVGTQVEEAAEGVLRALLAQKQEVLGQLRAHVEAAEEAARERLAELEGREQVARAAAAFARRVLSLGREAEILSLEGAIAQRLRQLQGCPWAPGPAPCLLPQLELHPGLLDKNCHLLRLSFEEQQPQKDGGKDGAGTQGGEESQSRREDEPKTERQGGVQPQAGDGAQTPKEEKAQTTREEGAQTLEEDRAQTPHEDGGPQPHRGGRPNKKKKFKGRLKSISREPSPALGPNLDGSGLLPRPIFYCSFPTRMPGDKRSPRITGLCPFGPREILVADEQNRALKRFSLNGDYKGTVPVPEGCSPCSVAALQSAVAFSASARLYLINPNGEVQWRRALSLSQASHAVAALPSGDRVAVSVAGHVEVYNMEGSLATRFIPGGKASRGLRALVFLTTSPQGHFVGSDWQQNSVVICDGLGQVVGEYKGPGLHGCQPGSVSVDKKGYIFLTLREVNKVVILDPKGSLLGDFLTAYHGLEKPRVTTMVDGRYLVVSLSNGTIHIFRVRSPDS
B2: PRDX6-Flag (wild-type peroxiredoxin 6) (enzyme, UniProt P30041 1-224)
chain: MPGGLLLGDVAPNFEANTTVGRIRFHDFLGDSWGILFSHPRDFTPVCTTELGRAAKLAPEFAKRNVKLIALSIDSVEDHLAWSKDINAYNCEEPTEKLPFPIIDDRNRELAILLGMLDPAEKDEKGMPVTARVVFVFGPDKKLKLSILYPATTGRNFDEILRVVISLQLTAEKRVATPVDWKDGDSVMVLPTIPEEEAKKLFPKGVFTKELPSGKKYLRYTPQP
B3: endogenous PRDX6 (enzyme, UniProt P30041 1-224)
chain: B2 chain
B4: PRDX6-MUT (C47S/S32A/D31A), enzymatically dead mutant of PRDX6 (enzyme, UniProt P30041 1-224)
chain: B2 chain with D31A, S32A, C47S

Assays:
[1] = biological target: T1, NNMT-GFP, full length (human) (UniProt P40261); test: co-IP; NNMT-GFP co-expressed with TRIM56-Myc and/or PRDX6-Flag in A2780 cells, MG132 treatment, IP with GFP antibody, immunoblot
T1 sequence: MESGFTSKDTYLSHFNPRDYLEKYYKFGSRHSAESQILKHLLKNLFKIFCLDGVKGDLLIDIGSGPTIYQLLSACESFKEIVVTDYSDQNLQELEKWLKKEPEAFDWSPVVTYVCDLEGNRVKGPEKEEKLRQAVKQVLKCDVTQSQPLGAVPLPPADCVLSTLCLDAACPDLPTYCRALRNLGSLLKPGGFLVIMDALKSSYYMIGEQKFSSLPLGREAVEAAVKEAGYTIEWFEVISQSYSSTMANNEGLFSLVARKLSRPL

[2] = biological target: T1, NNMT-GFP, full length (human); test: co-IP; tagged proteins co-expressed in HEK293T cells; IP lysis buffer (20 mM Tris-HCl pH 7.4, 137 mM NaCl, 0.5% NP-40, 0.5 mM EDTA); Flag beads or GFP antibody with protein A/G agarose; immunoblot
[3] = biological target: T2, NNMT-HA (nicotinamide N-methyltransferase) (human) (UniProt P40261); test: as above
T2 sequence: T1 sequence

[4] = biological target: T3, endogenous NNMT (SKOV3, A2780) (human (endogenous in SKOV3 and A2780)) (UniProt P40261); test: co-IP; endogenous proteins in SKOV3 and A2780 cells, reciprocal IP, immunoblot
T3 sequence: T1 sequence

Row | Binder | binding [1] | binding [2] | binding [3] | binding [4]
1 | B1 | binds | binds | – | –
2 | B2 | – | binds | binds | –
3 | B3 | – | – | – | binds
4 | B4 | – | binds | – | –
